In patent publication US20070010438A1, “Tumor treatment using beta-sheet peptides and radiotherapy” (priority 2005, published 2007):
For at least one compound, name, drawing or mass did not settle the structure.

How the values were obtained:
EC = EC proliferation, 3[H]thymidine incorporation assay (Table 3); format: cell-based, human
Protocol: EC proliferation was measured using a ^3[H]thymidine incorporation assay. EC were seeded in flatbottomed 96-well tissue culture plates (5000 cells/well) and grown for 3 days, in culture medium. In some cultures the proliferation of EC was enhanced by incubation with 10 ng/ml bFGF. During the last 6 hours of the assay, the culture was pulsed with 0.5 μCi [methyl-3 H]thymidine/well. Results are expressed as the arithmetic mean counts per minute (cpm) of triplicate cultures.

[1] = system: intercellular adhesion molecule-1 (ICAM-1); experiment: ICAM-1 expression on bFGF-treated EC (flow cytometry, Northern blot); format: cell-based, human
Protocol: In a first series of experiments, PF4 and βpep peptides were tested for their ability to prevent bFGF (fibroblast growth factor) mediated downregulation of ICAM-1. […] Simultaneously 100 μg/ml of each PF4, βpep-14, βpep-16, or medium was added. Mean ICAM-1 fluorescence intensity values were determined.
Since the in vivo situation of tumor-associated EC involves the low expression or even absence of ICAM-1, the next set of experiments aimed to study the ability to re-induce ICAM-1 expression after bFBF preincubation. […] Stained cells were analyzed on a FACScan flowcytometer. […] Statistical significance of observed differences was determined using the Student's t-test.
The anergy of EC to stimulation with inflammatory cytokines was the subject of additional experiments. […] Autoradiograms were subjected to scanning using a laser densitometer (Model GS670, Bio-Rad, Hercules, Calif.) and data were analysed with the Molecular Analyst PCTM software. […]

CNC(=O)[C@H](Cc1ccccc1)NC(=O)[C@H](CC(C)C)[C@H](CSc1cccs1)C(=O)NO [BB-94, batimastat, reference compound]
EC growth in vitro (EC): do not affect EC growth in vitro | effect on ICAM-1 expression, other inhibitors of angiogenesis [1]: did not affect ICAM-1 expression
